These results are taken from publication PMC4972521.

By UniProt entry, the sequences of proteins in these tests, tags left out.
UniProt P35222: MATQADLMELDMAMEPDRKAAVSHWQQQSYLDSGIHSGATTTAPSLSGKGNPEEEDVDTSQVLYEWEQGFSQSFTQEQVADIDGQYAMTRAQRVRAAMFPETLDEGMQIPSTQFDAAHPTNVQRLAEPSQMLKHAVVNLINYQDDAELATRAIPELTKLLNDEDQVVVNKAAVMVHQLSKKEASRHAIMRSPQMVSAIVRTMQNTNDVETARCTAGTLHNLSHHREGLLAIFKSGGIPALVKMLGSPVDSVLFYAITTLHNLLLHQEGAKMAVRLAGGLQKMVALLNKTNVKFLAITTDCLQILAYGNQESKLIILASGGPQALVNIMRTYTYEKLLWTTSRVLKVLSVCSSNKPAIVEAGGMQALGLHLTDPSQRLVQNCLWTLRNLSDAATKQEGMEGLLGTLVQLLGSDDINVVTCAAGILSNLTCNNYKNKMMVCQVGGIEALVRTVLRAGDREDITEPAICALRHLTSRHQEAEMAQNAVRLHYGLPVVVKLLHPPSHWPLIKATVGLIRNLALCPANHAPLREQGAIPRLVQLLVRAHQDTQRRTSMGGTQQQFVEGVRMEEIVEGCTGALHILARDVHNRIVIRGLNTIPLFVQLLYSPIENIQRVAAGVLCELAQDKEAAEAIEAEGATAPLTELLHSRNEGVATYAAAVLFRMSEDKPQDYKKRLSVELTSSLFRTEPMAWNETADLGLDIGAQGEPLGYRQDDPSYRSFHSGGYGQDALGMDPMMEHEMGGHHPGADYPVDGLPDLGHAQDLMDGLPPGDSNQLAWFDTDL
UniProt P01106: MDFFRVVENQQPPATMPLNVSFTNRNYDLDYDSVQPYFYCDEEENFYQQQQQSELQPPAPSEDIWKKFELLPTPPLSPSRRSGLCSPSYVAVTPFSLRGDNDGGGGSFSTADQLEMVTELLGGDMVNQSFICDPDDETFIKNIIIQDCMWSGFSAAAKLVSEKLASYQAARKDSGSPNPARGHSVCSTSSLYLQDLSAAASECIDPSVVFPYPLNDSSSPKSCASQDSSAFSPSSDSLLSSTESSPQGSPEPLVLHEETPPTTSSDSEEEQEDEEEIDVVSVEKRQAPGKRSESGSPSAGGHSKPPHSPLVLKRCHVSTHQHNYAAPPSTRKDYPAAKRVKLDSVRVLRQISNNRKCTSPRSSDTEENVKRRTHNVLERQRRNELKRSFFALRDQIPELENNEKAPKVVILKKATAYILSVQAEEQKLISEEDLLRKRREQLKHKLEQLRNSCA
UniProt O15169: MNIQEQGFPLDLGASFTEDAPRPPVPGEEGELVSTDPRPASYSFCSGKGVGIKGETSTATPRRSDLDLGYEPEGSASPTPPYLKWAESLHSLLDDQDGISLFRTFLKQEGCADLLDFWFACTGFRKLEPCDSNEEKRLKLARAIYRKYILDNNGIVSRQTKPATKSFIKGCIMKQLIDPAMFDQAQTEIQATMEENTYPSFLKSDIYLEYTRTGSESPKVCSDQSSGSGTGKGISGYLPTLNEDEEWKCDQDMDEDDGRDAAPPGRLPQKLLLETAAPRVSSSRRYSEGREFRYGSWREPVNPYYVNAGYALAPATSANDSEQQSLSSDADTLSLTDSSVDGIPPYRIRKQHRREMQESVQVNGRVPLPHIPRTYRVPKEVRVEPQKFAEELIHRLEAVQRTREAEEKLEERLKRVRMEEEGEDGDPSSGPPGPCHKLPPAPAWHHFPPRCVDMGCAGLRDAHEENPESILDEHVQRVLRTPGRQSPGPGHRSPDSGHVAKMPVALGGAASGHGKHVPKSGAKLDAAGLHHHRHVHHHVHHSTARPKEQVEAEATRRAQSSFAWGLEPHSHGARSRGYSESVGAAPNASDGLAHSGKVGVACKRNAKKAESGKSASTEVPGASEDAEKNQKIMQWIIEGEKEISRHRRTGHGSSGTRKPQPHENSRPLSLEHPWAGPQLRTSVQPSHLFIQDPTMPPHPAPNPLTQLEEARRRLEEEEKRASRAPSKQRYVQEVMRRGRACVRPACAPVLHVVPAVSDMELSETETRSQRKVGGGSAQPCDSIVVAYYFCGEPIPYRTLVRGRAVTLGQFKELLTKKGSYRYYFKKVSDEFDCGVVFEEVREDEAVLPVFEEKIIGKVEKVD
UniProt Q9UJU2: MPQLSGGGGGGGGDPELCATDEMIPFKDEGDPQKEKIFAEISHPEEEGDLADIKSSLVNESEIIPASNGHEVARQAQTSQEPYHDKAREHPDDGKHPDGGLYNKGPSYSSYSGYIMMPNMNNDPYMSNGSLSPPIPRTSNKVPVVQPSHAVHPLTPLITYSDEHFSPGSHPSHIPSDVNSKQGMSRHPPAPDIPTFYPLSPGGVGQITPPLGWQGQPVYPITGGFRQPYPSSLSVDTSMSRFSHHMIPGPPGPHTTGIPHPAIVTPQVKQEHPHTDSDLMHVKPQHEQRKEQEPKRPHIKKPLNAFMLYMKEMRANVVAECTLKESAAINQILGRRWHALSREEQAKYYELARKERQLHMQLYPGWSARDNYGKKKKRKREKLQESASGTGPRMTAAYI

For experiment [1], the target named is β-catenin (human (endogenous in AGS and MKN1)) (UniProt P35222). The experiment can be described thus: co-IP; lysates (PBS pH 7.2, 1.0% NP-40, 0.5% sodium deoxycholate, 0.1% SDS, 4 °C) of AGS and MKN1 mock and NKX6.3 stable cells; 1.0 mg protein precipitated with 2.0 μg antibody to β-catenin or GSK3β plus protein A/G-agarose; immunoblot.
Experiment [2] deals with c-Myc (human (endogenous in AGS and MKN1)) (UniProt P01106). The experiment can be described thus: co-IP; AGS^Mock and MKN1^Mock cells; c-Myc complex; immunoblot.
Experiment [3] shares this target. The experiment is described as follows: co-IP; AGS^NKX6.3 and MKN1^NKX6.3 cells (stable NKX6.3 expression); c-Myc complex; immunoblot. (In western blotting, separated proteins are transferred to a membrane and probed.)

No constants are given. Whether binding was seen depends on the method and setting. Binding seen in cells or lysates may run through a third protein. Some binding calls cover weakened binding; strength is not graded here.

For the molecule Axin1 (from UniProt O15169 1-862), the binding result in experiment [1] is reported as “binds”.

As for LEF1 (from UniProt Q9UJU2 1-399), in experiment [1], the binding entry is given as “binds”.

B1: Miz1 (protein, UniProt Q13105 1-803)
chain: MDFPQHSQHVLEQLNQQRQLGLLCDCTFVVDGVHFKAHKAVLAACSEYFKMLFVDQKDVVHLDISNAAGLGQVLEFMYTAKLSLSPENVDDVLAVATFLQMQDIITACHALKSLAEPATSPGGNAEALATEGGDKRAKEEKVATSTLSRLEQAGRSTPIGPSRDLKEERGGQAQSAASGAEQTEKADAPREPPPVELKPDPTSGMAAAEAEAALSESSEQEMEVEPARKGEEEQKEQEEQEEEGAGPAEVKEEGSQLENGEAPEENENEESAGTDSGQELGSEARGLRSGTYGDRTESKAYGSVIHKCEDCGKEFTHTGNFKRHIRIHTGEKPFSCRECSKAFSDPAACKAHEKTHSPLKPYGCEECGKSYRLISLLNLHKKRHSGEARYRCEDCGKLFTTSGNLKRHQLVHSGEKPYQCDYCGRSFSDPTSKMRHLETHDTDKEHKCPHCDKKFNQVGNLKAHLKIHIADGPLKCRECGKQFTTSGNLKRHLRIHSGEKPYVCIHCQRQFADPGALQRHVRIHTGEKPCQCVMCGKAFTQASSLIAHVRQHTGEKPYVCERCGKRFVQSSQLANHIRHHDNIRPHKCSVCSKAFVNVGDLSKHIIIHTGEKPYLCDKCGRGFNRVDNLRSHVKTVHQGKAGIKILEPEEGSEVSVVTVDDMVTLATEALAATAVTQLTVVPVGAAVTADETEVLKAEISKAVKQVQEEDPNTHILYACDSCGDKFLDANSLAQHVRIHTAQALVMFQTDADFYQQYGPGGTWPAGQVLQAGELVFRPRDGAEGQPALAETSPTAPECPPPAE
Turning to B1, the results for the binding entry in experiment [2] and in experiment [3] were “binds” and “no binding (condition: in cells stably expressing NKX6.3)”, respectively.

B2: TCF3 (protein, UniProt Q9HCS4 1-588)
chain: MPQLGGGGGGGGGGSGGGGGSSAGAAGGGDDLGANDELIPFQDEGGEEQEPSSDSASAQRDLDEVKSSLVNESENQSSSSDSEAERRPQPVRDTFQKPRDYFAEVRRPQDSAFFKGPPYPGYPFLMIPDLSSPYLSNGPLSPGGARTYLQMKWPLLDVPSSATVKDTRSPSPAHLSNKVPVVQHPHHMHPLTPLITYSNDHFSPGSPPTHLSPEIDPKTGIPRPPHPSELSPYYPLSPGAVGQIPHPLGWLVPQQGQPMYSLPPGGFRHPYPALAMNASMSSLVSSRFSPHMVAPAHPGLPTSGIPHPAIVSPIVKQEPAPPSLSPAVSVKSPVTVKKEEEKKPHVKKPLNAFMLYMKEMRAKVVAECTLKESAAINQILGRKWHNLSREEQAKYYELARKERQLHSQLYPTWSARDNYGKKKKRKREKQLSQTQSQQQVQEAEGALASKSKKPCVQYLPPEKPCDSPASSHGSMLDSPATPSAALASPAAPAATHSEQAQPLSLTTKPETRAQLALHSAAFLSAKAAASSSGQMGSQPPLLSRPLPLGSMPTALLASPPSFPATLHAHQALPVLQAQPLSLVTKSAH
B2: in experiment [1], the binding result is on record as “binds”.
